Measured values reported in PMC3386982.
Results are given in words; binding and its absence hold for the method and conditions named. Binding seen in cells or lysates may run through a third protein. Some results given as binding are weak or reduced against the parent protein; the word gives no strength.

Amino acid sequences for entries named in this document (tags omitted). Residues count along the entry.
UniProt P08631, residues 144-241: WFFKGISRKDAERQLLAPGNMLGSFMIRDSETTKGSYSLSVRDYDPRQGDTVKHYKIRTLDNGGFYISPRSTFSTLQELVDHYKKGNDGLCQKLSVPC
UniProt P40198, residues 35-252: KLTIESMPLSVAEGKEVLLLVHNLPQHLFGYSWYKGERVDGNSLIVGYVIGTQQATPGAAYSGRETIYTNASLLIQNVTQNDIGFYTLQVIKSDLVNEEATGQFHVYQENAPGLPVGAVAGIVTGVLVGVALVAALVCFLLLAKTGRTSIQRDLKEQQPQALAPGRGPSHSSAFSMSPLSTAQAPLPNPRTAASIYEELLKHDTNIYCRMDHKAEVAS

Target: GST-tagged SH2 domain of Hck (UniProt P08631)
Assay: pull-down; GST or GST-tagged SH2 domains immobilized on glutathione-sepharose beads; lysates of 293 cells transfected with tagged CEACAM together with or without v-Src; precipitates analysed by Western blotting; only the target purified

- binding: binds
Substance: GFP-tagged CEACAM3, tyrosine phosphorylated (co-expressed with v-Src) (from UniProt P40198 35-252) (receptor)
